{
  "source": "paper PMC10202413",
  "key": {"[1]": {"target": "protein tyrosine kinase 7 (PTK-7) on CEM cells (UniProt Q13308)", "experiment": "flow cytometry, cell binding", "conditions": "250 nM aptamer, 5 mM Mg2+, Whole cells washed in D-PBS with 4.5 g/L glucose and 5 mM MgCl2, 300,000 cells in 200 ul binding buffer (composition and pH not stated), on ice 30 min, protein on the cell surface, single-stranded DNA"}, "[2]": {"target": "T1, protein tyrosine kinase 7 (PTK-7) on HCT-116 cells (UniProt Q13308)", "T1 sequence": "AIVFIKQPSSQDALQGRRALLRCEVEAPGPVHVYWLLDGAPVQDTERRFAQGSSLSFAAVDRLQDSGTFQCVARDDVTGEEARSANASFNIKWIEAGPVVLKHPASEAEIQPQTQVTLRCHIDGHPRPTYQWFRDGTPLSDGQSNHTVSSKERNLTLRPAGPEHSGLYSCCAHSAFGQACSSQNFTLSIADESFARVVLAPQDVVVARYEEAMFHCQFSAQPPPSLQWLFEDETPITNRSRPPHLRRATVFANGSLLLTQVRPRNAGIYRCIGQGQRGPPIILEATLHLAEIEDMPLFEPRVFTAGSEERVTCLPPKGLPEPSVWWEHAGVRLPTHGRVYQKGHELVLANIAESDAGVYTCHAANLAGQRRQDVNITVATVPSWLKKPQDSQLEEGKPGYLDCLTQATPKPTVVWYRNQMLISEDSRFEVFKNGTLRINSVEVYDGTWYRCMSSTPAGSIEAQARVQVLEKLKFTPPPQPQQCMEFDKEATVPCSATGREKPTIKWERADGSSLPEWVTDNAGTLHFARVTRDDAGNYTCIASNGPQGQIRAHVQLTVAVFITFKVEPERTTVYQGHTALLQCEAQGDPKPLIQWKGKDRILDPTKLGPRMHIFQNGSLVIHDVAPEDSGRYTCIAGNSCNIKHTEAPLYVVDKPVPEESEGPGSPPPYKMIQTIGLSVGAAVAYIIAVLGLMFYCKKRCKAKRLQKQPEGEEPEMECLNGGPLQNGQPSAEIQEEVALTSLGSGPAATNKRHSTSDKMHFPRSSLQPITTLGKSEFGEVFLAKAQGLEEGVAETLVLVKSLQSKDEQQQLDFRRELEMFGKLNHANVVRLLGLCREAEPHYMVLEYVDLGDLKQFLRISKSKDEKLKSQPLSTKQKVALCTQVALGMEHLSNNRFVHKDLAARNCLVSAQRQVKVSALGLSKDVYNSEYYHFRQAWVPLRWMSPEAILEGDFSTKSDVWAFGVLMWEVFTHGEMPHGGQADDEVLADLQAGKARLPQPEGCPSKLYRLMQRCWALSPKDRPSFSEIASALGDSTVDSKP", "experiment": "radioligand cell binding (gamma counter)", "conditions": "4 C, 4 h; 5' amino coupled to p-SCN-Bn-NOTA, 68Ga chelated; Whole cells washed in D-PBS with 4.5 g/L glucose and 5 mM MgCl2; 300,000 cells in 200 ul binding buffer (composition and pH not stated), on ice 30 min; protein on the cell surface; label: 68Ga; single-stranded DNA"}},
  "note": "Construct, isoform or probe ends are uncertain for at least one entry. Results from cells or extracts need not show a direct contact.",
  "data": [
    {"sequence": "ATCTAACTGCTGCGCCGCCGGGAAAATACTGTACGGTTAGA [SGC8]", "values": [
      {"measurement": "binding result", "setting": "[1]; label: 5' Cy5", "result": "binds"}
    ]},
    {"sequence": "ATCTAACTGCTGCGCCGCCGGGAAAATACTGTACGGTTAGA [NOTA-SGC8]", "values": [
      {"measurement": "binding result", "setting": "[1]; 5' amino coupled to p-SCN-Bn-NOTA", "result": "binds"}
    ]},
    {"sequence": "ATCTAACTGCTGCGCCGCCGGGAAAATACTGTACGGTTAGA [68Ga[Ga]-NOTA-SGC8]", "values": [
      {"measurement": "binding result", "setting": "[2]", "result": "binds"}
    ]}
  ]
}
